No constants are given. Whether binding was seen depends on the method and setting. Some binding calls cover weakened binding; strength is not graded here. Where a sequence is shown, tags or fusion partners need not be part of it. One block for each binder: values may come before it.
Tests used:
[1] = molecular target: B. subtilis TatAc with a C-terminal Strep-II tag (B. subtilis) (UniProt O31804); assay: native gel or EMSA; blue native PAGE (5–13.5% gradient) of membranes solubilised in 2% digitonin, 50 mM Bis–Tris pH 7.0, 750 mM 6-aminocaproic acid; immunoblot for the Strep-II tag
[2] = molecular target: E. coli TatA with a C-terminal Strep-II tag (E. coli) (UniProt P69428); assay: as above

- binding [1]: binds
B1: B. subtilis TatAc with a C-terminal Strep-II tag (protein, UniProt O31804 1-62)
chain: MELSFTKILVILFVGFLVFGPDKLPALGRAAGKALSEFKQATSGLTQDIRKNDSENKEDKQM

- binding [2]: binds
B2: E. coli TatA with a C-terminal Strep-II tag (protein, UniProt P69428 1-89)
chain: MGGISIWQLLIIAVIVVLLFGTKKLGSIGSDLGASIKGFKKAMSDDEPKQDKTSQDADFTAKTIADKQADTNQEQAKTEDAKRHDKEQV

Reference: PMC3988878, “Ultrastructural characterisation of Bacillus subtilis TatA complexes suggests they are too small to form homooligomeric translocation pores” (Biochimica et Biophysica Acta, 2013)
